# Assay results as given in the supplement of paper PMC8728848.
# The list shows a part of the results.
# B1: Agalectin (Anopheles gambiae) (protein)
# chain: MSNRPFTAKFPRYPENGDEVFIRGKLKDDAKSFSVNFCLPRPAQVAEHQTPPYIALHFKTIYDERDDTSRVVLNWKNLQWQQEEVLDNYWHVDRSQTFRVVFRLHEDCIKVFVNSVDHPPDYQFPVQLPLDQIESIELWDDVEHVEEISFRYDNGNSY
# What was measured:
# Experiment in all cases: glycan array binding signal (z-score within array); higher = stronger binding
# Conditions in all cases: glycan notation: IUPAC condensed, linker removed
# [1] = target: Fuc(a1-2)[GalNAc(a1-3)]Gal(b1-3)GlcNAc(b1-6)GalNAc
# Method in brief: (§1)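 Negative Z-scores can be read as non-binding. The Z-score is calculated within each array and then averaged across arrays of one protein sequence at different concentrations or buffers and across linkers. Arrays, 3228 in all, were curated from the Consortium for Functional Glycomics database and kept only where the protein sequence was available.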
# [2] = target: Fuc(a1-2)[GalNAc(a1-3)]Gal(b1-4)Glc
# Method in brief: as §1
# [3] = target: Fuc(a1-2)[GalNAc(a1-3)]Gal(b1-4)GlcNAc
# Method in brief: as §1
# [4] = target: Fuc(a1-2)[GalNAc(a1-3)]Gal(b1-4)GlcNAc(b1-2)Man
# Method in brief: as §1
# [5] = target: Fuc(a1-2)[GalNAc(a1-3)]Gal(b1-4)GlcNAc(b1-2)Man(a1-3)[Fuc(a1-2)[GalNAc(a1-3)]Gal(b1-4)GlcNAc(b1-2)Man(a1-6)]Man(b1-4)GlcNAc(b1-4)GlcNAc
# Method in brief: as §1
# [6] = target: Fuc(a1-2)[GalNAc(a1-3)]Gal(b1-4)GlcNAc(b1-2)Man(a1-3)[Fuc(a1-2)[GalNAc(a1-3)]Gal(b1-4)GlcNAc(b1-2)Man(a1-6)]Man(b1-4)GlcNAc(b1-4)[Fuc(a1-6)]GlcNAc
# Method in brief: as §1
# [7] = target: Fuc(a1-2)[GalNAc(a1-3)]Gal(b1-4)GlcNAc(b1-3)Gal(b1-4)GlcNAc
# Method in brief: as §1
# [8] = target: Fuc(a1-2)[GalNAc(a1-3)]Gal(b1-4)GlcNAc(b1-3)Gal(b1-4)GlcNAc(b1-3)Gal(b1-4)GlcNAc
# Method in brief: as §1
# [9] = target: Fuc(a1-2)[GalNAc(a1-3)]Gal(b1-4)GlcNAc(b1-3)GalNAc
# Method in brief: as §1
# [10] = target: Fuc(a1-2)[GalNAc(a1-3)]Gal(b1-4)GlcNAc(b1-3)[Fuc(a1-2)[GalNAc(a1-3)]Gal(b1-4)GlcNAc(b1-6)]GalNAc
# Method in brief: as §1
# [11] = target: Fuc(a1-2)[GalNAc(a1-3)]Gal(b1-4)GlcNAc(b1-6)GalNAc
# Method in brief: as §1
# [12] = target: Fuc(a1-2)[GalNAc(a1-3)]Gal(b1-4)[Fuc(a1-3)]GlcNAc
# Method in brief: as §1
# [13] = target: Fuc(a1-2)[GalNAc(a1-3)]Gal(b1-4)[Fuc(a1-3)]GlcNAc(b1-3)GalNAc
# Method in brief: as §1
# [14] = target: Fuc(a1-2)[GalNAc(a1-4)]Gal(b1-4)GlcNAc
# Method in brief: as §1
# [15] = target: Fuc(a1-2)[GalNAc(b1-3)]Gal
# Method in brief: as §1
# Fuc(a1-3)GlcNAc = target: Fuc(a1-3)GlcNAc
# Method in brief: as §1
# [16] = target: Fuc(a1-3)[Gal(b1-4)]Glc6S
# Method in brief: as §1
# [17] = target: Fuc(a1-3)[Gal(b1-4)]GlcNAc
# Method in brief: as §1
# [18] = target: Fuc(a1-3)[Gal(b1-4)]GlcNAc(b1-2)Man
# Method in brief: as §1
# [19] = target: Fuc(a1-3)[Gal(b1-4)]GlcNAc(b1-2)Man(a1-3)[Fuc(a1-3)[Gal(b1-4)]GlcNAc(b1-2)Man(a1-6)]Man(b1-4)GlcNAc(b1-4)GlcNAc
# Method in brief: as §1
# [20] = target: Fuc(a1-3)[Gal(b1-4)]GlcNAc(b1-2)Man(a1-3)[Fuc(a1-3)[Gal(b1-4)]GlcNAc(b1-2)Man(a1-6)]Man(b1-4)GlcNAc(b1-4)[Fuc(a1-6)]GlcNAc
# Method in brief: as §1
# [21] = target: Fuc(a1-3)[Gal(b1-4)]GlcNAc(b1-3)Gal(b1-3)[Fuc(a1-4)]GlcNAc
# Method in brief: as §1
# [22] = target: Fuc(a1-3)[Gal(b1-4)]GlcNAc(b1-3)Gal(b1-4)[Fuc(a1-3)]GlcNAc
# Method in brief: as §1
# [23] = target: Fuc(a1-3)[Gal(b1-4)]GlcNAc(b1-3)Gal(b1-4)[Fuc(a1-3)]GlcNAc(b1-3)Gal(b1-4)[Fuc(a1-3)]GlcNAc
# Method in brief: as §1
# [24] = target: Fuc(a1-3)[Gal(b1-4)]GlcNAc(b1-3)GalNAc
# Method in brief: as §1
# [25] = target: Fuc(a1-3)[Gal(b1-4)]GlcNAc(b1-6)GalNAc
# Method in brief: as §1
# [26] = target: Fuc(a1-3)[Gal(b1-4)]GlcNAc(b1-6)[Gal(b1-3)GlcNAc(b1-3)]Gal(b1-4)Glc
# Method in brief: as §1
# [27] = target: Fuc(a1-3)[Gal(b1-4)]GlcNAc6S
# Method in brief: as §1
# [28] = target: Fuc(a1-3)[Gal3S(b1-4)]Glc
# Method in brief: as §1
# [29] = target: Fuc(a1-3)[Gal3S(b1-4)]GlcNAc
# Method in brief: as §1
# [30] = target: Fuc(a1-3)[Gal3S(b1-4)]GlcNAc6S
# Method in brief: as §1
# [31] = target: Fuc(a1-3)[GalNAc(b1-4)]GlcNAc
# Method in brief: as §1
# [32] = target: Fuc(a1-3)[GalNAc(b1-4)]GlcNAc6S
# Method in brief: as §1
# Fuc(a1-4)GlcNAc = target: Fuc(a1-4)GlcNAc
# Method in brief: as §1
# Fuc(b1-3)GlcNAc = target: Fuc(b1-3)GlcNAc
# Method in brief: as §1
# Gal(a1-2)Gal = target: Gal(a1-2)Gal
# Method in brief: as §1
# Gal(a1-3)Gal = target: Gal(a1-3)Gal
# Method in brief: as §1
# Gal(a1-3)Gal(b1-3)GlcNAc = target: Gal(a1-3)Gal(b1-3)GlcNAc
# Method in brief: as §1
# [33] = target: Gal(a1-3)Gal(b1-3)GlcNAc(b1-2)Man
# Method in brief: as §1
# [34] = target: Gal(a1-3)Gal(b1-3)GlcNAc(b1-2)Man(a1-3)[Gal(a1-3)Gal(b1-3)GlcNAc(b1-2)Man(a1-6)]Man(b1-4)GlcNAc(b1-4)GlcNAc
# Method in brief: as §1
# [35] = target: Gal(a1-3)Gal(b1-3)GlcNAc(b1-3)GalNAc
# Method in brief: as §1
# [36] = target: Gal(a1-3)Gal(b1-3)GlcNAc(b1-6)GalNAc
# Method in brief: as §1
# [37] = target: Gal(a1-3)Gal(b1-3)[Fuc(a1-4)]GlcNAc(b1-2)Man(a1-3)[Gal(a1-3)Gal(b1-3)[Fuc(a1-4)]GlcNAc(b1-2)Man(a1-6)]Man(b1-4)GlcNAc(b1-4)GlcNAc
# Method in brief: as §1
# Gal(a1-3)Gal(b1-4)Glc = target: Gal(a1-3)Gal(b1-4)Glc
# Method in brief: as §1
# Gal(a1-3)Gal(b1-4)GlcNAc = target: Gal(a1-3)Gal(b1-4)GlcNAc
# Method in brief: as §1
binder,measurement,setting,value
B1,glycan array binding signal (z-score),[1],-1.13
same,glycan array binding signal (z-score),[2],0.362
same,glycan array binding signal (z-score),[3],-0.466
same,glycan array binding signal (z-score),[4],-0.074
same,glycan array binding signal (z-score),[5],0.622
same,glycan array binding signal (z-score),[6],-1.43
same,glycan array binding signal (z-score),[7],-0.278
same,glycan array binding signal (z-score),[8],1.69
same,glycan array binding signal (z-score),[9],-1.27
same,glycan array binding signal (z-score),[10],-0.409
same,glycan array binding signal (z-score),[11],0.074
same,glycan array binding signal (z-score),[12],2.7
same,glycan array binding signal (z-score),[13],-0.12
same,glycan array binding signal (z-score),[14],0.035
same,glycan array binding signal (z-score),[15],-0.572
same,glycan array binding signal (z-score),Fuc(a1-3)GlcNAc,-1.07
same,glycan array binding signal (z-score),[16],-0.632
same,glycan array binding signal (z-score),[17],-0.52
same,glycan array binding signal (z-score),[18],0.831
same,glycan array binding signal (z-score),[19],-1.7
same,glycan array binding signal (z-score),[20],0.571
same,glycan array binding signal (z-score),[21],-1.08
same,glycan array binding signal (z-score),[22],0.34
same,glycan array binding signal (z-score),[23],-0.383
same,glycan array binding signal (z-score),[24],-0.517
same,glycan array binding signal (z-score),[25],-0.114
same,glycan array binding signal (z-score),[26],-0.398
same,glycan array binding signal (z-score),[27],0.34
same,glycan array binding signal (z-score),[28],-0.516
same,glycan array binding signal (z-score),[29],-0.811
same,glycan array binding signal (z-score),[30],-0.759
same,glycan array binding signal (z-score),[31],0.834
same,glycan array binding signal (z-score),[32],0.253
same,glycan array binding signal (z-score),Fuc(a1-4)GlcNAc,-0.626
same,glycan array binding signal (z-score),Fuc(b1-3)GlcNAc,-0.693
same,glycan array binding signal (z-score),Gal(a1-2)Gal,0.111
same,glycan array binding signal (z-score),Gal(a1-3)Gal,0.541
same,glycan array binding signal (z-score),Gal(a1-3)Gal(b1-3)GlcNAc,-0.616
same,glycan array binding signal (z-score),[33],-0.656
same,glycan array binding signal (z-score),[34],1.78
same,glycan array binding signal (z-score),[35],-0.548
same,glycan array binding signal (z-score),[36],-0.394
same,glycan array binding signal (z-score),[37],1.21
same,glycan array binding signal (z-score),Gal(a1-3)Gal(b1-4)Glc,-0.718
same,glycan array binding signal (z-score),Gal(a1-3)Gal(b1-4)GlcNAc,-0.703

# Three records drawn at random from the list so far:
binder,measurement,setting,value
B1,glycan array binding signal (z-score),[24],-0.517
same,glycan array binding signal (z-score),[8],1.69
same,glycan array binding signal (z-score),[14],0.035
